Assay results from paper PMC2656613.
No constants are given. Whether binding was seen depends on the method and setting. Binding seen in cells or lysates may run through a third protein. Some binding calls cover weakened binding; strength is not graded here.

Amino acid sequences for entries named in this document (tags omitted).
UniProt O08586: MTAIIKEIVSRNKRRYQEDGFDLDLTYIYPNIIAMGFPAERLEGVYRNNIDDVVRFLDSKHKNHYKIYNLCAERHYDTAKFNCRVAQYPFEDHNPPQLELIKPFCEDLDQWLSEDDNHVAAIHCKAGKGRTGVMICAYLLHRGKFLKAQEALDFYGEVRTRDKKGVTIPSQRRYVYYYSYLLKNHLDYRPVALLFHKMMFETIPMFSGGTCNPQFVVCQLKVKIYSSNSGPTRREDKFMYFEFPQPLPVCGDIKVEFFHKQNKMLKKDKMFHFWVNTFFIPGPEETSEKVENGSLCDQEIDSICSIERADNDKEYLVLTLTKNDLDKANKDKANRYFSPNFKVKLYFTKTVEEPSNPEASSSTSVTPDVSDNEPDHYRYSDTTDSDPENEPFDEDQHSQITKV

Molecular target: T1, thioredoxin (Trx1) (mouse (endogenous in MMTV-PyVT mammary tumor cells)) (UniProt P10639)
T1 sequence: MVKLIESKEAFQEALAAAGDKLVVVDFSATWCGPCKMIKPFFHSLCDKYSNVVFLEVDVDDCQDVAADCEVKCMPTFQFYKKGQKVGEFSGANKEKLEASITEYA
Test: co-IP; 500 µg lysate in RIPA buffer, pre-cleared with rabbit IgG and protein G-Sepharose, 2 µg anti-Trx1 or anti-PTEN antibody overnight at 4°C, protein G-Sepharose, Western blotting; lysates from PyVT(+/−)/ADN(+/+) and PyVT(+/−)/ADN(+/−) tumors

Q: Which binding does the source give for “phosphatase and tensin homolog (PTEN) (from UniProt O08586 1-403)” here?
A: binds
